Results published in paper PMC8934646.
Results are given in words; binding and its absence hold for the method and conditions named. For some of these results: In cells and extracts the contact can be indirect. Some entries that bind do so weakly or less than the wild type.

Protein sequences, listed by entry. Tags and fused reporters are not part of them.
UniProt Q9Y5U2: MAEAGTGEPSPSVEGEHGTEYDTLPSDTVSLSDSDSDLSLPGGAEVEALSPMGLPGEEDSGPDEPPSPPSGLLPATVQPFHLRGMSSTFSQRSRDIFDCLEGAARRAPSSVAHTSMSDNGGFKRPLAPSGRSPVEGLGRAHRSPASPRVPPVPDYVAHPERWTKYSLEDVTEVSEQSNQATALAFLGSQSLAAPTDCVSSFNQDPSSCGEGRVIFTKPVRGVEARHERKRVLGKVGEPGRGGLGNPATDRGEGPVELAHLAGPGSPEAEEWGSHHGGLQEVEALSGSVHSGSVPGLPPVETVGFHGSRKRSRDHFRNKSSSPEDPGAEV

Key:
EFTUD2^115–580 (human) = molecular target: T1, EFTUD2^115–580 (human) (UniProt Q15029); experiment: SEC; analytical SEC, Superdex 200 increase 3.2/300, 20 mM Tris-HCl pH 8.0, 200 mM NaCl, 1 mM DTT; 75 μg SNRNP200 variant with 1.5-fold molar excess of a GST-TSSC4 variant, or 30 μg GST-TSSC4 variant with equimolar PRPF8^Jab1ΔC, in 50 μl, 10 min on ice; fractions by SDS-PAGE; both purified
T1 sequence: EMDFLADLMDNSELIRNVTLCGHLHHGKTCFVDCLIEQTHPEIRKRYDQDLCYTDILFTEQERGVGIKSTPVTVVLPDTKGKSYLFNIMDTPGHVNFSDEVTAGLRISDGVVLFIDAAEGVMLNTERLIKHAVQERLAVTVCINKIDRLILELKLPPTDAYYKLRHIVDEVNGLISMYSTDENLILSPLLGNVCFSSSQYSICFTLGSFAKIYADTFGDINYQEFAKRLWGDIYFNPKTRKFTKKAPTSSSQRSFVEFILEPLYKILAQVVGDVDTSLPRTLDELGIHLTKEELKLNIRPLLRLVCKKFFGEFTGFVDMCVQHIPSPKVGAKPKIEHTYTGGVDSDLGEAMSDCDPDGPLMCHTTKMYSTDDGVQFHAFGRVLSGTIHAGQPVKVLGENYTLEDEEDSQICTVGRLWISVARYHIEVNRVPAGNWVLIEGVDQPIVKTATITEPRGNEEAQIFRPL

PRPF6^237–941 (human) = molecular target: T2, PRPF6^237–941 (human) (UniProt O94906); experiment: as above
T2 sequence: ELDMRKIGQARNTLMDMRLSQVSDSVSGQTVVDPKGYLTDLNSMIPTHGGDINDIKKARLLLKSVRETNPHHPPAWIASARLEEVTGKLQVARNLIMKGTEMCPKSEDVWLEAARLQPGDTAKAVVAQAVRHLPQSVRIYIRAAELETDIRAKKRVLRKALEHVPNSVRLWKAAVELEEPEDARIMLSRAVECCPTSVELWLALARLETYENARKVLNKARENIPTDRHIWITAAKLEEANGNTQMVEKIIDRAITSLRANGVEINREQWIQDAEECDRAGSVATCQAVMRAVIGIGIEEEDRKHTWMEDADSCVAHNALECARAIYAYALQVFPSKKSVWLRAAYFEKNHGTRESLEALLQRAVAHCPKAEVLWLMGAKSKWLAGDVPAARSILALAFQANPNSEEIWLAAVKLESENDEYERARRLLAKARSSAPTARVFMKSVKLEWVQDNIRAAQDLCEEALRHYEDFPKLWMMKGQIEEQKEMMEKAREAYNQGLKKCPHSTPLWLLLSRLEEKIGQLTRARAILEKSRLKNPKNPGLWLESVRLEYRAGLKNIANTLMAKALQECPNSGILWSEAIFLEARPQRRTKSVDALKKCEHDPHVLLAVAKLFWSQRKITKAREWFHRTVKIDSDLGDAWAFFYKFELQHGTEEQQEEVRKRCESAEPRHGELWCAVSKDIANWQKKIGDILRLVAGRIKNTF

[1] = molecular target: T3, SNRNP200 N-terminal helicase cassette (SNRNP200^NC) (human) (UniProt O75643); experiment: as above
T3 sequence: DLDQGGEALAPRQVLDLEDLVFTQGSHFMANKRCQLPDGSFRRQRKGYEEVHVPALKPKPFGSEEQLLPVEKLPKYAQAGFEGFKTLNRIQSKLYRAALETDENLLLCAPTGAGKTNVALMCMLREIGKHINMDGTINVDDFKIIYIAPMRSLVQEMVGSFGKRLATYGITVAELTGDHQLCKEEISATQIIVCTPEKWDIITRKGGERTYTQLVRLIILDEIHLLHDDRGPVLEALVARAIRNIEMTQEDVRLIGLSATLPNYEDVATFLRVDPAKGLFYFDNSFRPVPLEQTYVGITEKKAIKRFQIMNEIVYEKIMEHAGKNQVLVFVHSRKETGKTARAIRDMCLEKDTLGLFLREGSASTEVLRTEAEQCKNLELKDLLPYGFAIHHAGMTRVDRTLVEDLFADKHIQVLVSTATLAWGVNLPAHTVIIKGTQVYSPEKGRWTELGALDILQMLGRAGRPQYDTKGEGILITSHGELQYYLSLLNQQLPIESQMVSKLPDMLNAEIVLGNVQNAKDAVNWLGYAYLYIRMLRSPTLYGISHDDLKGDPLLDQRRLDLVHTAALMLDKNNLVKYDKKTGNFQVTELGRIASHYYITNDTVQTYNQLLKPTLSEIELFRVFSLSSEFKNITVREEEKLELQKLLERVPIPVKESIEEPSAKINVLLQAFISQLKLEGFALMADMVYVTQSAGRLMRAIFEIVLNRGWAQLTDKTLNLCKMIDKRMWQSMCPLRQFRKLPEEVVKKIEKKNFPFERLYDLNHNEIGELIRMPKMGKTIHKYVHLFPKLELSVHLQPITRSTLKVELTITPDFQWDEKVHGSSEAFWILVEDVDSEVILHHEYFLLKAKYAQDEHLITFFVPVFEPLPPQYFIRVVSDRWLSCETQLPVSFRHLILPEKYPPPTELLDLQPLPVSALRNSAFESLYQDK

[2] = molecular target: C-terminally Flag-tagged TSSC4 (TSSC4^wt-Flag), transiently expressed (human) (UniProt Q9Y5U2); experiment: co-IP; Flag-IP (Flag M2 affinity gel) from 100 μg nuclear extract of transiently transfected HEK293 cells, RIPA buffer with 100 mM NaCl, 2% BSA, overnight 4°C; Western blot with anti-SNRNP200 serum

Row | binding (EFTUD2^115–580 (human)) | binding (PRPF6^237–941 (human)) | binding [1] | binding [2] | Substance
1 | no binding | no binding | no binding | – | His6-GST-TSSC4 (wild type) (from UniProt Q9Y5U2 1-329)
2 | – | – | – | binds | SNRNP200 (endogenous) (from UniProt O75643 1-2136) (enzyme)
